Measurements taken from patent publication US4643991A (The University of Kentucky Research Foundation, priority 1984, dated 1987).
At least one compound was matched to its structure with a doubt left.

Amino acid sequences for entries named in this document (tags omitted). Residues count along the entry.
UniProt P00772, 27-266: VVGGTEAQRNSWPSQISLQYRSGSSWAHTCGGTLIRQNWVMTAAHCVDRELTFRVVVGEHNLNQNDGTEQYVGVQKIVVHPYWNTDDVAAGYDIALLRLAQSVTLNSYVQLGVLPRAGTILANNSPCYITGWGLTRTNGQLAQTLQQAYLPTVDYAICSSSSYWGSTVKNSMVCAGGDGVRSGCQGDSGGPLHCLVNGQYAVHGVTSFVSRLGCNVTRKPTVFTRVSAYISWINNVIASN

How the values were obtained:
[1] = molecular target: porcine pancreatic elastase (Sus scrofa, UniProt P00772); assay: Inhibition of porcine pancreatic (PP) elastase in vitro, substrate BOC-Ala-ONp, Lineweaver-Burk and Dixon plots; assay type: biochemical; settings: for PPE (inhibitory activity towards PP elastase): Table 4, [E] = 0.61 μM; for Relative inhibitory activity towards PP elastase (rank order): Table 4 footnote (1)
Experimental: As pointed out above, the compounds of the invention are useful as elastase inhibitors. To evaluate the compounds, the inhibitory activity of the compounds were tested in vitro against the serine dependent proteolytic enzymes, trypsin, chymotrypsin and porcine pancreatic elastase. All three enzymes belong to the family of serine proteases where the catalytic residues are composed of a triad of amino acid residues, serine, histidine and aspartic acid that actually perform the peptide bond hydrolysis. In addition to the catalytic residues, the active site is composed of an extended substrate binding site that consists of a primary substrate binding site S1, and various subsites on either side of the scissile bond.
The rate and extent of inhibition could be effected by varying the structure of R and R'. As shown from kinetic parameters when R is p-nitrophenol, and R' was varied, all the peptidyl carbamates inhibited PP elastase except when R' was a tert-butyl group. […] In all cases the inhibition was specific and competitive. […] Moreover, the nature of the protecting group (P5) seemed to affect the affinity of the inhibitor for the enzyme. In all these cases the inhibition was studied at different substrate and inhibitor concentrations and the mode of inhibition determined from Lineweaver-Burk and Dixon plots. Ki values were calculated from the latter. […] The enzymatic activity of PP elastase after treatment with the inhibitor(s) was also tested using the natural substrate elastin-congored.

HL elastase = molecular target: T1, HL elastase (Homo sapiens, UniProt P08246); assay: Inhibition of human leukocyte (HL) elastase; assay type: biochemical; settings: for HLE (inhibitory activity towards HL elastase): Table 4, [E] = 0.61 μM; for Relative inhibitory activity towards HL elastase (rank order): Table 4 footnote (2)
T1 sequence (P08246 30-267): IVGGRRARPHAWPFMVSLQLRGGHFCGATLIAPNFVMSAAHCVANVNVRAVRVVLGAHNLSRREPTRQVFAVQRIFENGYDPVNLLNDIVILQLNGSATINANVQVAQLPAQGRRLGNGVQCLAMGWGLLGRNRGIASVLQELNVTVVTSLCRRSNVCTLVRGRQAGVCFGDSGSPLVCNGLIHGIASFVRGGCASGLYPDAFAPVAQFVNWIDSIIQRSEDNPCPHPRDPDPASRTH

| SMILES | PPE (inhibitory activity towards PP elastase) [1] | Relative inhibitory activity towards PP elastase (rank order) [1] | HLE (inhibitory activity towards HL elastase) (HL elastase) | Relative inhibitory activity towards HL elastase (rank order) (HL elastase) |
| --- | --- | --- | --- | --- |
| CCCCN(CC(=O)[C@@H]1CCCN1C(=O)[C@H](C)NC(=O)[C@H](C)NC(=O)CCC(=O)OC)C(=O)Sc1nnnn1C [Compound 36, 1-Methyl-5-tetrazolyl N-(methylsuccinyl-L-alanyl-L-alanyl-L-prolymethyl)-N-butylthiocarbamate] | + | 39 > 26 > 18 = 43 > 36 > 22 | + | 39 > 43 = 18 > 26 > 22 = 36 |
| COC(=O)CCC(=O)N[C@@H](C)C(=O)N[C@@H](C)C(=O)N1CCC[C@H]1C(=O)CN(C(=O)Sc1nnnn1-c1ccccc1)C(C)C [Compound 39, 1-Phenyl-5-tetrazolyl N-(methylsuccinyl-L-alanyl-L-alanyl-L-prolylmethyl)-N-isopropylthiolcarbamate] | + | 39 > 26 > 18 = 43 > 36 > 22 | + | 39 > 43 = 18 > 26 > 22 = 36 |
